Data as given in PubChem BioAssay AID1053208 (Peter MacCallum Cancer Centre, 2014)

Aim: 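Genes whose silencing cuts survival of bone tumour cells only with doxorubicin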 (primary screen)
Cell system: mouse osteosarcoma cells, early-passage culture from an engineered mouse model of fibroblastic bone tumour
Reagents: siRNA pool against mouse genes, 40 nM
Timing: about 120 h (48 h before drug, then 72 h with drug)
Challenge: doxorubicin 100 nM for 72 h, roughly 30-40% inhibitory dose
Measurement: 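Luminescent ATP signal taken as viability with or without 100 nM doxorubicin for 72 h; mean of two wells set against non-targeting siRNA and turned into robust z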
Direction: viability z-score with doxorubicin and doxorubicin viability vs non-targeting: higher = more viable cells under doxorubicin; viability z-score without drug: higher = more viable cells with knock-down alone; z-score of drug to no-drug ratio: higher = less drug sensitisation by knock-down
Rule for the call: 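Called active if knock-down leaves viability unchanged without drug (z within -2 to 2) but lowers it with doxorubicin (z at or under -2)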
This is an unselected part of about 17,000 reagents. 788 of all reagents (4.7%) were called active. 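Calls rest on z-score classes alone; an extra cut-off of viability at most 70% of control was not applied to them.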

no.	target gene	combined z-score class	viability z-score with doxorubicin	viability z-score without drug	z-score of drug to no-drug ratio	doxorubicin viability vs non-targeting	Call
1	Coro2a (GeneID 107684)	no change with or without drug	0.9	-0.34	1.35	1.02	inactive
2	Rpl14 (GeneID 67115)	low cell count with and without drug	-6.52	-5.9	-4.27	0.36	inactive
3	Fbln7 (GeneID 70370)	high cell count with and without drug	2.02	2.19	0.67	1.12	inactive
4	Lrrc26 (GeneID 227618)	no change with or without drug	-0.56	0.34	-0.67	0.89	inactive
5	Msh2 (GeneID 17685)	no change with or without drug	0.45	-0.17	0.67	0.98	inactive
6	Cdon (GeneID 57810)	no change with or without drug	-0.11	0.34	-0.22	0.93	inactive
7	Afg1l (GeneID 215951)	no change with or without drug	-0.45	-0.51	0	0.9	inactive
8	Klhl12 (GeneID 240756)	no change with or without drug	-0.34	0.34	-0.45	0.91	inactive
9	Aqp12 (GeneID 208760)	no change with or without drug	0.67	0.17	0.67	1	inactive
10	Lpar6 (GeneID 67168)	no change with or without drug	0.22	0.34	0.11	0.96	inactive
11	Fbxl8 (GeneID 50788)	no change with or without drug	-0.67	0.51	-0.9	0.88	inactive
12	Cant1 (GeneID 76025)	no change with or without drug	-0.56	-1.52	0.56	0.89	inactive
13	Klc1 (GeneID 16593)	no change with or without drug	0	-0.84	0.67	0.94	inactive
14	Dctn1 (GeneID 13191)	no change with or without drug	1.46	1.18	0.79	1.07	inactive
15	Pdcl3 (GeneID 68833)	no change with or without drug	-1.35	-0.17	-1.24	0.82	inactive
16	Meg3 (GeneID 17263)	no change with or without drug	-0.22	0.17	-0.22	0.92	inactive
17	Samt4 (GeneID 75185)	no change with or without drug	-0.67	1.01	-1.24	0.88	inactive
18	Rhod (GeneID 11854)	no change with or without drug	-0.45	0.17	-0.45	0.9	inactive
19	Hs3st3b1 (GeneID 54710)	no change with or without drug	0.67	1.85	-0.45	1	inactive
20	Rasgrf2 (GeneID 19418)	no change with or without drug	0	-0.51	0.45	0.94	inactive
21	Depdc5 (GeneID 277854)	no change with or without drug	0.34	1.18	-0.34	0.97	inactive
22	Thbs3 (GeneID 21827)	no change with or without drug	-1.12	-1.01	-0.45	0.84	inactive
23	Rnf125 (GeneID 67664)	no change with or without drug	-0.11	0.67	-0.45	0.93	inactive
24	Lims2 (GeneID 225341)	no change with or without drug	1.57	-0.17	1.91	1.08	inactive
25	Mest (GeneID 17294)	no change with or without drug	-0.22	-0.67	0.34	0.92	inactive
26	5330430C04Rik (GeneID 78274)	no change with or without drug	-0.22	1.52	-1.12	0.92	inactive
27	P4ha1 (GeneID 18451)	no change with or without drug	0.56	0	0.67	0.99	inactive
28	Nkx1-2 (GeneID 20231)	no change with or without drug	-0.34	-1.69	1.01	0.91	inactive
29	Or5p6 (GeneID 258729)	no change with or without drug	0.22	-0.17	0.45	0.96	inactive
30	Sub1 (GeneID 20024)	no change with or without drug	0.45	0	0.56	0.98	inactive
31	Cfl1 (GeneID 12631)	no change with or without drug	-0.79	-0.34	-0.45	0.87	inactive
32	Ankar (GeneID 319695)	no change with or without drug	-0.45	-0.17	-0.22	0.9	inactive
33	Mtcl3 (GeneID 67412)	no change with or without drug	-0.45	-1.01	0.34	0.9	inactive
34	Ifna12 (GeneID 242519)	no change with or without drug	1.24	1.35	0.45	1.05	inactive
35	Alyref2 (GeneID 56009)	low cell count with and without drug	-5.17	-4.89	-2.81	0.48	inactive
36	Fxyd3 (GeneID 17178)	no change with or without drug	-0.22	-0.17	0	0.92	inactive
37	Toporsl (GeneID 68274)	high cell count with doxorubicin only	2.36	1.52	1.46	1.15	inactive
38	Foxo1 (GeneID 56458)	no change with or without drug	0.45	-0.51	1.01	0.98	inactive
39	Arhgap32 (GeneID 330914)	no change with or without drug	-0.22	0.17	-0.22	0.92	inactive
40	Rhbdf2 (GeneID 217344)	no change with or without drug	-0.22	0.34	-0.34	0.92	inactive
41	Fgf23 (GeneID 64654)	no change with or without drug	-1.35	-1.18	-0.56	0.82	inactive
42	Abhd17c (GeneID 70178)	no change with or without drug	-0.34	1.18	-1.01	0.91	inactive
43	Or7a42 (GeneID 18372)	no change with or without drug	-1.12	-0.17	-1.01	0.84	inactive
44	Sparcl1 (GeneID 13602)	no change with or without drug	-0.45	-0.51	0	0.9	inactive
45	1700001O22Rik (GeneID 73598)	no change with or without drug	-1.12	0.34	-1.24	0.84	inactive
46	Yju2 (GeneID 72886)	no change with or without drug	-0.11	-0.17	0.11	0.93	inactive
47	Foxd3 (GeneID 15221)	no change with or without drug	0.9	0.84	0.45	1.02	inactive
48	Tma7 (GeneID 66167)	no change with or without drug	-0.34	-0.17	-0.11	0.91	inactive
49	Chmp1b2 (GeneID 67028)	no change with or without drug	1.91	1.01	1.35	1.11	inactive
50	Muc13 (GeneID 17063)	no change with or without drug	0.56	-0.17	0.79	0.99	inactive

No new results follow: an excerpt of the list.
no.	target gene	combined z-score class	viability z-score with doxorubicin	viability z-score without drug	z-score of drug to no-drug ratio	doxorubicin viability vs non-targeting	Call
43	Or7a42 (GeneID 18372)	no change with or without drug	-1.12	-0.17	-1.01	0.84	inactive
44	Sparcl1 (GeneID 13602)	no change with or without drug	-0.45	-0.51	0	0.9	inactive
